Experimental data: PubChem BioAssay AID1053208 (Peter MacCallum Cancer Centre, 2014)

- Test: 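Genes whose silencing cuts survival of bone tumour cells only with doxorubicin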 (primary screen)
- System: mouse osteosarcoma cells, early-passage culture from an engineered mouse model of fibroblastic bone tumour
- Knock-down reagent: siRNA pool against mouse genes, 40 nM
- Duration: about 120 h (48 h before drug, then 72 h with drug)
- Challenge: doxorubicin 100 nM for 72 h, roughly 30-40% inhibitory dose
- Read-out: 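Luminescent ATP signal taken as viability with or without 100 nM doxorubicin for 72 h; mean of two wells set against non-targeting siRNA and turned into robust z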
- Reading the numbers: viability z-score with doxorubicin: higher = more viable cells under doxorubicin; viability z-score without drug: higher = more viable cells with knock-down alone
- Active means: 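a pool counts as active when its viability z-score with doxorubicin is -2 or below and its z-score without drug lies between -2 and 2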
Shown is an unselected part of about 17,000 deposited reagents. In the full data, 788 (4.7%) got an active call. 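Calls rest on z-score classes alone; an extra cut-off of viability at most 70% of control was not applied to them.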 A number with no mark means an inactive call. Further read-outs or replicates are left out here. Reagent sequences are not shown.

| gene knocked down | combined z-score class | viability z-score with doxorubicin | viability z-score without drug |
| --- | --- | --- | --- |
| Rs1 | no change with or without drug | -1.12 | -1.18 |
| Cbr1 | no change with or without drug | -0.9 | 0.67 |
| Dnajb9 | no change with or without drug | 0 | 0.67 |
| Sin3b | no change with or without drug | -0.45 | 0.17 |
| Nt5c2 | no change with or without drug | 0.67 | 0.84 |
| Cs | low cell count with doxorubicin only (active) | -2.02 | 0.17 |
| Ccny | no change with or without drug | 0 | -0.51 |
| Rims3 | no change with or without drug | 1.12 | -0.17 |
| Efna3 | no change with or without drug | 0.45 | -0.17 |
| Psmd7 | no change with or without drug | 0.45 | -0.84 |
| Bfsp1 | no change with or without drug | 0 | -0.17 |
| Krt88 | no change with or without drug | -0.22 | 1.52 |
| Atl3 | no change with or without drug | -1.35 | -0.17 |
| Aga | no change with or without drug | 0.56 | 0.84 |

Called active (from the list above):
| gene knocked down | combined z-score class | viability z-score with doxorubicin | viability z-score without drug |
| --- | --- | --- | --- |
| Cs | low cell count with doxorubicin only (active) | -2.02 | 0.17 |

Further entries follow.
| gene knocked down | combined z-score class | viability z-score with doxorubicin | viability z-score without drug |
| --- | --- | --- | --- |
| Mrpl13 | no change with or without drug | 0.11 | -1.01 |
| Il9r | no change with or without drug | -0.22 | 0.51 |
| Zfp1 | no change with or without drug | 1.01 | 0.17 |
| Cyp4f13 | no change with or without drug | 0.34 | 0.67 |
| Rab38 | no change with or without drug | 1.91 | 1.01 |
| Vmn1r82 | no change with or without drug | 1.12 | 0.17 |
| BC006583 | no change with or without drug | 0.9 | 1.18 |
| Hnrnpd | no change with or without drug | 0.22 | -1.69 |
| Oxt | high cell count with and without drug | 2.14 | 2.36 |
| Cdk17 | no change with or without drug | -1.12 | -1.85 |
| Slc9b2 | low cell count with doxorubicin only (active) | -2.02 | -0.17 |
| Syne4 | no change with or without drug | 0 | -0.34 |
| Susd3 | no change with or without drug | -1.8 | 0.17 |
| Cfap52 | no change with or without drug | 0.34 | 1.35 |
| Atad3a | no change with or without drug | -0.79 | -0.51 |
| Zfand6 | no change with or without drug | 0.34 | -1.69 |
| Sdcbp2 | high cell count without drug only | 1.12 | 3.04 |
| Rbm41 | high cell count without drug only | 1.8 | 2.02 |
| Ttc12 | no change with or without drug | -0.9 | 0.34 |
| Zbtb40 | no change with or without drug | -0.11 | 0.17 |
